Source: patent publication US6696546
Results are given in words; binding and its absence hold for the method and conditions named.

Protein sequences, listed by entry. Tags and fused reporters are not part of them. Lines headed by an entry give the natural chain unless they say otherwise; changes in a name come on top.
UniProt P14635: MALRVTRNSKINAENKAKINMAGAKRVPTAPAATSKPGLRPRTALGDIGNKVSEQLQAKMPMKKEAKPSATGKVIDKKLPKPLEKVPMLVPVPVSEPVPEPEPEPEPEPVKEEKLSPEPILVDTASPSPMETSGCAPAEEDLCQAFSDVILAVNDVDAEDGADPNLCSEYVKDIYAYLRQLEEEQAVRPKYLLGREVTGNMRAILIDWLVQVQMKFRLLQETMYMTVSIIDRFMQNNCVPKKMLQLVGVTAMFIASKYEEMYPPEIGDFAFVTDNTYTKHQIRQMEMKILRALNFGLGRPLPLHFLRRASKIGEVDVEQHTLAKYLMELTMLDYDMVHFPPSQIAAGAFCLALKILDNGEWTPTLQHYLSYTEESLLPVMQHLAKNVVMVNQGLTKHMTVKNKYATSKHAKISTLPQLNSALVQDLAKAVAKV
UniProt P25500: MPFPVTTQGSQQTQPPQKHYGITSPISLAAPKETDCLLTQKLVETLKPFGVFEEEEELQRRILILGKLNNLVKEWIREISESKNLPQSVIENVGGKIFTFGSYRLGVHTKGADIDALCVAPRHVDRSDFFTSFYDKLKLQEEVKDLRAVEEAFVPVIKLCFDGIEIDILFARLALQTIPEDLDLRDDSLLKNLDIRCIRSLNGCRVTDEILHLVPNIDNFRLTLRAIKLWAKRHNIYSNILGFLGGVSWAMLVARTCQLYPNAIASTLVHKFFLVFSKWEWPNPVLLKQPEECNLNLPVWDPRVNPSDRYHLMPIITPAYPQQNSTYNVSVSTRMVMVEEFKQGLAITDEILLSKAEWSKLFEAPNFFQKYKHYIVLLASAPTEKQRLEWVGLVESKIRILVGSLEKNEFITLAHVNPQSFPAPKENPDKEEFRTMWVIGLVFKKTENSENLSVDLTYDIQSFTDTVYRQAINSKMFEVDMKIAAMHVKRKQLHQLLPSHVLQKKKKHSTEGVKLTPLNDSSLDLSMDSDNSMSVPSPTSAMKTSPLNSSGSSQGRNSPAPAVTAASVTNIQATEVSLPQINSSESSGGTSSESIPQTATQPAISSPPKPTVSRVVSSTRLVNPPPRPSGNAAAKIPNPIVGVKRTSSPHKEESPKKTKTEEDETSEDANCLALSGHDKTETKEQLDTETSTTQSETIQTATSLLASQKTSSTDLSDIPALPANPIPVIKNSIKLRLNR

Target: GST-Cyclin B1 fusion protein (UniProt P14635)
Test: GST-cyclin B1 pull-down of in vitro translated 35S truncated PAP, autoradiography

Question: With “N-terminal truncated PAP (539-689aa) (from UniProt P25500) (enzyme)” as the substance, how does the binding read?
Answer: The binding was “no binding”.
